Laboratory results taken from article PMC10940091.
Results are given in words; binding and its absence hold for the method and conditions named. Binding seen in cells or lysates may run through a third protein. Some entries that bind do so weakly or less than the wild type.

Target: T1, Zinc finger MYND-type containing 8 (ZMYND8), endogenous (human (endogenous in MDA-MB-231 and MCF-7)) (UniProt Q9ULU4)
T1 sequence: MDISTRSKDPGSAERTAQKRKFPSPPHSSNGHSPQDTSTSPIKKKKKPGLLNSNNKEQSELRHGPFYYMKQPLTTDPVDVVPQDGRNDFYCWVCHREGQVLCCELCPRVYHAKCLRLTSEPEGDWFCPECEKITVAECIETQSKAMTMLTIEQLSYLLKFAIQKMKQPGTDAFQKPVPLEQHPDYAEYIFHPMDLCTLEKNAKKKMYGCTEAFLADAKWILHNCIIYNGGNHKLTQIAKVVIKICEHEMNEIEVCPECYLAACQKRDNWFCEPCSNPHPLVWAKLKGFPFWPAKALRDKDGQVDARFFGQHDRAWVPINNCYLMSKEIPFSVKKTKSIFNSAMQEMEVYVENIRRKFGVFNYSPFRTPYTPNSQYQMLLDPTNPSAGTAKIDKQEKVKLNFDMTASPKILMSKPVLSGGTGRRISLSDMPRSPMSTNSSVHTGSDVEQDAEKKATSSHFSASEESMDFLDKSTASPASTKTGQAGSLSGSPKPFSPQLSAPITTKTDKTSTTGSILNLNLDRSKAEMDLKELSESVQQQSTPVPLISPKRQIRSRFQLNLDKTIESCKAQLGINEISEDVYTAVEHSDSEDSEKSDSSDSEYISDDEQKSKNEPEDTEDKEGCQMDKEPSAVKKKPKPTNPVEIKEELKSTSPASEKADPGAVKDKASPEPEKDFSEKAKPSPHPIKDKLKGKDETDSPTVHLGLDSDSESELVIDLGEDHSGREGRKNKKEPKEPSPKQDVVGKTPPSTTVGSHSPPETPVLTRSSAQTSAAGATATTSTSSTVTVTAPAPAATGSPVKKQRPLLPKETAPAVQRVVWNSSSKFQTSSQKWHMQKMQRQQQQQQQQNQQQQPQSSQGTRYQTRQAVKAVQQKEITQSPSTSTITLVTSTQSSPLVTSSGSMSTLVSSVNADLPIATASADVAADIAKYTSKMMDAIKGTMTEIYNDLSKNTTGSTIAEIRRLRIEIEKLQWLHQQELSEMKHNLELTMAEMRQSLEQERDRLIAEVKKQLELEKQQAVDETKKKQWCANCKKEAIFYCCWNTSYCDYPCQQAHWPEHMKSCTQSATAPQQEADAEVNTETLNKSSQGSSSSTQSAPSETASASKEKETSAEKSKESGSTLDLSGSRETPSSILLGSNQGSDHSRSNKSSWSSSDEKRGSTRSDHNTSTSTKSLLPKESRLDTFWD
Assay: co-IP; endogenous proteins in lysates of MDA-MB-231 and MCF-7 mammospheres; NETN lysis buffer (150 mM NaCl, 1 mM EDTA, 10 mM Tris-HCl pH 8.0, 0.5% Igepal); IP overnight at 4°C with anti-ZMYND8 or anti-NRF2 antibody or control IgG, protein A/G magnetic beads; immunoblot

- binding: binds
B1: Nuclear factor erythroid 2-related factor 2 (NRF2), endogenous (protein, UniProt Q16236 1-605)
chain: MMDLELPPPGLPSQQDMDLIDILWRQDIDLGVSREVFDFSQRRKEYELEKQKKLEKERQEQLQKEQEKAFFAQLQLDEETGEFLPIQPAQHIQSETSGSANYSQVAHIPKSDALYFDDCMQLLAQTFPFVDDNEVSSATFQSLVPDIPGHIESPVFIATNQAQSPETSVAQVAPVDLDGMQQDIEQVWEELLSIPELQCLNIENDKLVETTMVPSPEAKLTEVDNYHFYSSIPSMEKEVGNCSPHFLNAFEDSFSSILSTEDPNQLTVNSLNSDATVNTDFGDEFYSAFIAEPSISNSMPSPATLSHSLSELLNGPIDVSDLSLCKAFNQNHPESTAEFNDSDSGISLNTSPSVASPEHSVESSSYGDTLLGLSDSEVEELDSAPGSVKQNGPKTPVHSSGDMVQPLSPSQGQSTHVHDAQCENTPEKELPVSPGHRKTPFTKDKHSSRLEAHLTRDELRAKALHIPFPVEKIINLPVVDFNEMMSKEQFNEAQLALIRDIRRRGKNKVAAQNCRKRKLENIVELEQDLDHLKDEKEKLLKEKGENDKSLHLLKKQLSTLYLEVFSMLRDEDGKPYSPSEYSLQQTRDGNVFLVPKSKKPDVKKN
